# From PubChem BioAssay AID2508 (National Center for Advancing Translational Sciences (NCATS), 2010)
# The shares of active, inactive and inconclusive entries below differ from those in the screen. Where the call is inconclusive, the potency comes from a doubtful curve fit. The source made the active and inactive calls. Calls follow the shape of the dose curve; as a rule, active = well fitted inhibition curve with a large enough effect; inconclusive = small, poorly fitted or top-dose-only effect, or effect the other way; inactive = no such curve, though single readings can be large or run the other way.
# Assay: Confirmatory Assay for General miRNAs Modulators and/or Inhibitors/Activators of miR-21
# Settings: HeLa miR-21 FLuc reporter, luminescence, 48 h; activity change, negative = inhibition: at 38.3 µM (top of the series)
# Source text: MLSCN Grant: 1 R21 NS059478-01 Assay Provider: Qihong Huang, The Wistar Institute NCGC Assay Overview: MicroRNAs (miRNAs) are endogenously encoded small (~20-25 nucleotides), nonprotein-coding RNAs that are involved in post-transcriptional repression of target messenger RNAs (mRNAs) (Le and Hannon, 2004). Estimated to be involved in the regulation of 30% of all protein-coding mRNAs (Filipowicz et al., 2008), miRNAs play a significant role in many biological processes including cellular differentiation and tissue development (Ghildiyal and Zamore, 2009).
# NCGC Assay Protocol Summary: Reagents: HeLa cells stably expressing firefly luciferase (FLuc) under the control of a CMV promoter (upstream) and a miR-21 binding sequence directly downstream of the gene. These cells endogenously express miR-21. Control compounds used were compound C3 (provided by collaborator), N6-phenyladenosine (MP Biomedicals, 0215379625), and DMSO. Assay Summary: 6uL of HeLa miR-21-FLuc cells in assay buffer (DMEM, Invitrogen #21063-029; 10% FBS, HyClone #SH30071.03) were dispensed at 2000cells/well (3.3 x 10^5 cells/mL) into Greiner solid-white TC-treated 1536-well plates using a Multidrop Combi (Thermo Fisher Scientific). Plates were incubated for one hour at 37 degree Celsius, 95% humidity, 5% CO2. These assay plates were then treated with 23nL of compound or DMSO using a Kalypsys pin tool, which allows for delivery of a 24-point titration of each compound to the assay plate, with a final compound concentration ranging from approximately 40uM to 5pM. Assay plates were then incubated for 48 hours. After incubation, plates were allowed to come to RT for one hour prior to delivery of 3uL of 3X luciferase detection reagent. After a 15 minute incubation to allow for cell lysis, luciferase activity was measured using a ViewLux CCD imager (PerkinElmer), with an average exposure time of 2-12 seconds. Keywords: NIH Roadmap, MLPCN, MLSMR, qHTS, miR-21, microRNA, firefly luciferase, FLuc.
Compound,Potency,"activity change, negative = inhibition"
CC(C)C(=O)Nc1nc2c(s1)CC(C(C)(C)C)CC2 (stereo not given),active: 2.83 µM,–
O=S(=O)(c1ccc(F)cc1)n1ccc(-c2cnc(-c3ccccc3)s2)n1,active: 5.65 µM,–
CC(C)(C)c1ccc(NC(=O)CSc2nnc(-c3n[nH]c4ccccc34)o2)cc1,"inconclusive: 14.2 µM [falling, partial curve, poor fit]",–
Cc1ccc(-c2nsc(SCC(=O)Nc3ccc4c(c3)OCO4)n2)cc1,active: 17.9 µM,–
O=C(CSc1nnc(-c2ccccn2)o1)Nc1cccc(Cl)c1,active: 2.52 µM,–
Fc1ccccc1CSc1nnc(-c2cnccn2)n1Cc1ccco1,"inconclusive: 25.2 µM [falling, partial curve, poor fit]",–
NC(=O)c1ccccc1NC(=O)c1ccc(-c2ccc(Br)cc2)o1,active: 2.83 µM,–
c1ccc(C2=Nn3c(nnc3-c3cc(-c4ccccc4)n[nH]3)SC2)cc1,–,inactive: 11.4%
Cc1ccc(C)c(Nc2nc3nonc3nc2Nc2cccc(C)c2C)c1,"inconclusive: 5.65 µM [activator, partial curve, poor fit]",–
COc1cccc(C(=O)Nc2ccc3nc(N4CCN(c5ncccn5)CC4)cc(C)c3c2)c1OC,"inconclusive: 7.11 µM [activator, full curve]",–
O=C(Nc1nnc(S(=O)(=O)N2CCCC2)s1)c1ccc(F)cc1,–,inactive: -23.8%
COc1ccc(-n2nnc(-c3nc(-c4cccs4)no3)c2N)cc1OC,–,inactive: -4.89%
c1ccc(CSc2nnc3ccc(-c4cccs4)nn23)nc1,"inconclusive: 7.11 µM [falling, full curve, poor fit]",–
COc1ccc(NC(=O)CSc2nc(SC)ns2)c(OC)c1,active: 4 µM,–
COc1ccccc1Nc1nn2c(=O)c3ccc(C(=O)NCc4cccs4)cc3nc2s1,–,inconclusive: 47.5% [activator]
Cc1cc(C)n2c(SCc3ccccc3Cl)nnc2n1,"inconclusive: 15.9 µM [falling, partial curve, poor fit]",–
CCS(=O)(=O)c1oc(-c2ccc(F)cc2)nc1S(=O)(=O)c1ccccc1,"inconclusive: 1.79 µM [activator, full curve]",–
Cc1ccccc1OCCn1cnc2c(N)ncnc21,–,inactive: -32.4%
COc1ccccc1NC(=O)C/C(C)=N/NC(=O)c1ccccn1,–,inactive: -5.3%
Cc1cccc(N2CCN(C(=O)C3CCN(c4ncnc5c4nc4n5CCCCC4)CC3)CC2C)c1 (stereo not given),"inconclusive: 10 µM [activator, partial curve]",–

Compound,Potency,"activity change, negative = inhibition"
CCC(Oc1ccccc1F)C(=O)N1CCC(c2nc3ccccc3s2)CC1 (stereo not given),"inconclusive: 20 µM [activator, single point]",–
CCS(=O)(=O)n1nc(-c2ccccc2)nc1NCc1ccco1,"inconclusive: 14.2 µM [falling, partial curve, poor fit]",–
CC(C)S(=O)(=O)c1oc(-c2ccc(F)cc2)nc1S(=O)(=O)c1ccc(F)cc1,"inconclusive: 5.65 µM [activator, full curve, poor fit]",–
CCS(=O)(=O)c1ncc(Cl)c(C(=O)Nc2ccc(S(=O)(=O)N(C)c3ccccc3)cc2)n1,"inconclusive: 2.25 µM [activator, full curve]",–
CCc1cccc(-n2nnc(-c3nsc(NC(=O)c4cccs4)n3)c2C)c1,active: 10 µM,–
Cc1ccc2c(C)c(C(=O)N(C)C(C)c3ccncn3)oc2c1C (stereo not given),"inconclusive: 20 µM [falling, partial curve, poor fit]",–
COc1ccc(-c2nnc(SCC(=O)Nc3cccc(F)c3)s2)cc1,"inconclusive: 3.56 µM [falling, full curve, poor fit]",–
COc1cc(Cl)c(C)cc1Nc1c2c(nc3ccccc13)CCC2,–,inconclusive: 49% [activator]
CCCCOc1ccccc1CC1C(=O)Nc2ccc(Br)cc21 (stereo not given),"inconclusive: 22.5 µM [activator, partial curve, poor fit]",–
CS(=O)(=O)c1ncc(Cl)c(C(=O)N2CCN(c3cccc(Cl)c3)CC2)n1,"inconclusive: 1.79 µM [activator, full curve]",–
Cc1cc(C)cc(NC(=O)CSc2nnc(CNC(=O)c3ccco3)o2)c1,–,inactive: 1.68%
COc1ccc(CCNc2ncnc3c2cnn3-c2cc(Cl)ccc2C)cc1,"inconclusive: 12.6 µM [activator, partial curve, poor fit]",–
Cc1ccc(-c2csc(NC(=O)CSc3nc4ccccc4o3)n2)cc1,"inconclusive: 7.98 µM [falling, full curve, poor fit]",–
COc1ccccc1NC(=O)c1sc2nc3c(cc2c1N)CN(Cc1ccccc1)CC3,–,inactive: -1.25%
Fc1cccc(Cl)c1CSc1nnc2ccccn12,"inconclusive: 6.34 µM [falling, full curve, poor fit]",–
CCC(C)S(=O)(=O)c1oc(-c2cccs2)nc1S(=O)(=O)c1ccccc1 (stereo not given),"inconclusive: 2.25 µM [activator, full curve]",–
CCC(=O)n1nc(-c2cccnc2)nc1NCc1ccc(F)cc1,–,inactive: -17%
Cc1cccc(OCc2nnc(SCC(=O)Nc3ccc(N4CCOCC4)cc3)o2)c1,–,inactive: -7.71%
CCc1nonc1NC(=O)c1oc2ccc(C)cc2c1C,"inconclusive: 11.3 µM [falling, partial curve, poor fit]",–
CCS(=O)(=O)c1ncc(Cl)c(C(=O)N2CCN(c3cccc(Cl)c3)CC2)n1,"inconclusive: 1.26 µM [activator, full curve]",–

# Single records, as listed above:
# `Cc1cccc(OCc2nnc(SCC(=O)Nc3ccc(N4CCOCC4)cc3)o2)c1` reads activity change, negative = inhibition: inactive: -7.71%
# `CCCCOc1ccccc1CC1C(=O)Nc2ccc(Br)cc21` (stereo not given) reads Potency: inconclusive: 22.5 µM [activator, partial curve, poor fit]
